Measurements as given in the supplement of paper PMC7411640.
This is one part of the list. Most values lie within the scatter of the assay; repeated measurements hardly agree.

Tested on: MDA-MB-468
Assay: phospho-S6 immunofluorescence (DAPI-normalised), per-plate z-score; higher = higher phospho-S6 signal (less pathway suppression)
Conditions: 24 h
Method: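 GPCR-targeted compound library (MedChemExpress HY-L006) tested on MDA-MB-468 PTEN-null TNBC cells in 384-well plates at 0.1, 1 or 10 uM, combined with vehicle, GDC0941 450 nM or lapatinib 1 uM, for 24 h. Phospho-S6 (S240/244) immunofluorescence normalised to DAPI and expressed as a per-plate z-score; values are the mean of biological triplicates.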

[1] = compound 0.1 µM, co-treatment: GDC0941 450 nM
[2] = compound 0.1 µM, co-treatment: lapatinib 1 uM
[3] = compound 0.1 µM, co-treatment: vehicle
[4] = compound 1 µM, co-treatment: GDC0941 450 nM
[5] = compound 1 µM, co-treatment: lapatinib 1 uM
[6] = compound 1 µM, co-treatment: vehicle
[7] = compound 10 µM, co-treatment: GDC0941 450 nM
[8] = compound 10 µM, co-treatment: lapatinib 1 uM
[9] = compound 10 µM, co-treatment: vehicle

Compound	phospho-S6 immunofluorescence (z-score) [1]	phospho-S6 immunofluorescence (z-score) [2]	phospho-S6 immunofluorescence (z-score) [3]	phospho-S6 immunofluorescence (z-score) [4]	phospho-S6 immunofluorescence (z-score) [5]	phospho-S6 immunofluorescence (z-score) [6]	phospho-S6 immunofluorescence (z-score) [7]	phospho-S6 immunofluorescence (z-score) [8]	phospho-S6 immunofluorescence (z-score) [9]
CC(C)N(CC[C@H](c1ccccc1)c1cc(CO)ccc1O)C(C)C [(R)-5-Hydroxymethyl Tolterodine]	-0.63	-0.13	0.97	-0.62	-0.19	-0.28	–	–	–
CC(C)[N+]1(C)[C@@H]2CC[C@H]1C[C@@H](OC(=O)C(CO)c1ccccc1)C2 (stereo not given in full) [Ipratropium (bromide)]	-1.07	-0.05	-1.1	-1.66	-0.08	-1.49	-0.02	0.28	-0.61
CC(C)=CCC/C(C)=C/CC/C(C)=C/CSc1ccccc1C(=O)O [Salirasib]	0.68	-0.05	-0.53	1.06	0.01	-0.24	–	–	–
OCC1OC(n2cnc3c(NCCc4ccccc4)ncnc32)C(O)C1O (stereo not given) [N6-(2-Phenylethyl)adenosine]	-0.14	0.25	-0.46	0.74	1.78	0.77	–	–	–
COc1cc(NC(=O)c2ccccn2)ccc1Cl	-0.61	0.6	0.57	0.72	0.94	0.91	-0.65	-0.21	0.28
CC(=O)OCC(=O)[C@@]12N=C(C)O[C@@H]1C[C@H]1[C@@H]3CCC4=CC(=O)C=C[C@]4(C)[C@H]3[C@@H](O)C[C@@]12C [Deflazacort]	-0.81	0.35	-0.35	-0.5	0.39	-0.26	-0.99	-0.57	-0.08
